Experimental data from publication PMC7819943, “Rice protein-binding microarrays: a tool to detect cis-acting elements near promoter regions in rice”.
Some of the results follow.

Amino acid sequences for entries named in this document (tags omitted).
UniProt Q0JBA9, entry or part of it: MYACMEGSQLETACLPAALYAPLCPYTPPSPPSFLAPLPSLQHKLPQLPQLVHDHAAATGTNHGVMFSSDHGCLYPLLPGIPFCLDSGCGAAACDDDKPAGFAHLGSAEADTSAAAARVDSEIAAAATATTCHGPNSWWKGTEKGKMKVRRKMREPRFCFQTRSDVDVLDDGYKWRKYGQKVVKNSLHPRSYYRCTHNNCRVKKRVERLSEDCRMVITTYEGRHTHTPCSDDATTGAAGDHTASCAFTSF

target: OsWRKY34 (Oryza sativa, UniProt Q0JBA9 1-250); test: protein-binding microarray (RPBM); PBS, 2% BSA, 51.3 ng/ul salmon testes DNA, 50 uM zinc acetate, 200 nM TF, 25 C, 1 h; high values mean tight binding; details: protein: recombinant; tags: N-terminal polyhistidine and DsRed monomer fusion (pET32a); label: CyDye5-dUTP incorporated in the synthesized complementary strand; 3' TTTTT single-stranded linker to array surface; dsDNA, one strand shown
Method in brief: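 A custom Agilent array was converted to double-stranded form by primer extension with Cy5-dUTP and blocked with 2% BSA. Protein at 200 nM in PBS with 2% BSA, salmon testes DNA and 50 µM zinc acetate was applied for 1 h at 25 °C, followed by washing. The proteins were polyhistidine–DsRed N-terminal fusions of transcription factors, expressed in E. coli BL21-CodonPlus and Ni–NTA-purified. The binding signal is per-feature fluorescence intensity (arbitrary units) from an Axon 4000B scanner.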

Sequence | binding signal
TCTTTGTTGGTGTTGTGTATCTCTTCTCTATCAAACAAAACGGAGTCACCTAGTGCAG | 11000 fluorescence intensity (a.u.)
AACCACCACAAGCCGTTAACCCCGTTGTTTACCTCCTCCTCGGAGTCACCTAGTGCAG | 8190 fluorescence intensity (a.u.)
AAAGCTGCACCCATCCGTTTGTTCGCCACCATTTCCATCCCGGAGTCACCTAGTGCAG | 9500 fluorescence intensity (a.u.)
TTGTCGTCCACGCCGCCATCTCCTTGGTCATCCGCAACAACGGAGTCACCTAGTGCAG | 8350 fluorescence intensity (a.u.)
CTCACCTTCTGCTCCTGGCTTTGCCTCGAATTATAACACACGGAGTCACCTAGTGCAG | 12800 fluorescence intensity (a.u.)
TTCTTGTCTTCATCAGTTTTGTTAAATCGATCGGTGGTTGCGGAGTCACCTAGTGCAG | 10200 fluorescence intensity (a.u.)
AAGGTTGTCTTGTTTGATTAGCTATTTTCTTTGCCTGGTTCGGAGTCACCTAGTGCAG | 11400 fluorescence intensity (a.u.)
ACATAGCAGCAGGCGGCGACCTCGGTTTACGGAAAGTCAACGGAGTCACCTAGTGCAG | 9300 fluorescence intensity (a.u.)
AAAAAATGTGTGCGGTCAGAAGGTGGTTTGATTCTTATTTCGGAGTCACCTAGTGCAG | 11000 fluorescence intensity (a.u.)
CTTCCTATCTTCCCTGCTTCTACTTTTCTTATCCTTTTGCCGGAGTCACCTAGTGCAG | 9360 fluorescence intensity (a.u.)
AATCTCGACCACTGTCTACGTATACCTGCTTCATCTGAACCGGAGTCACCTAGTGCAG | 9740 fluorescence intensity (a.u.)
GGGTTTTGTTTGGCTGTATTTTGTGAATTTGTGATGCAGTCGGAGTCACCTAGTGCAG | 10400 fluorescence intensity (a.u.)
ATACATCTACCTCTCACCATACCTCACGCGACCTACATAACGGAGTCACCTAGTGCAG | 12300 fluorescence intensity (a.u.)
CCATGTGAATTGCTTCTTCGTACTACTGTACTCTCTTTCTCGGAGTCACCTAGTGCAG | 12300 fluorescence intensity (a.u.)
TGCTCGGGTTCGTGGGGTTGGGAAGCGAGGGATGCGATCTCGGAGTCACCTAGTGCAG | 8720 fluorescence intensity (a.u.)
CAATGTTTCCGTTCCGTTAGATTCGCTGGTCTGGACGCCGCGGAGTCACCTAGTGCAG | 9580 fluorescence intensity (a.u.)
ATCTTTTACCCTTTTTTTAACAAAGTTATTTTTTAGGAGCCGGAGTCACCTAGTGCAG | 8520 fluorescence intensity (a.u.)
ATGACACTGTACTTATCGCTATCACGTACTGTTCGCTTTCCGGAGTCACCTAGTGCAG | 9940 fluorescence intensity (a.u.)
TCGAGTTTCGACTACCATCTCAGCTTCGGTCTCGTATTCTCGGAGTCACCTAGTGCAG | 10700 fluorescence intensity (a.u.)
CTCTTATATTCCAAGCATCTCGTGTTTTATGCTTTTTAATCGGAGTCACCTAGTGCAG | 9360 fluorescence intensity (a.u.)
AGTGGGTGGGCTCAAAGTCGAAGTCTCGATACAATTAAAACGGAGTCACCTAGTGCAG | 10000 fluorescence intensity (a.u.)

Sequence | binding signal
GGGGTATTACCGTATTAGTGGGAAATGTTCGATCTTTCTACGGAGTCACCTAGTGCAG | 8130 fluorescence intensity (a.u.)
TTATGCTTCACCATCGACTCATGCACTTGTCCCCGTATCACGGAGTCACCTAGTGCAG | 8070 fluorescence intensity (a.u.)
CAACACTTTATCCATGTATATCATGCTGTTTCATTACATTCGGAGTCACCTAGTGCAG | 11200 fluorescence intensity (a.u.)
GGTTTCGGTCTCGGTTTTTTCGGTTCGGTTCTTCGGTTCGCGGAGTCACCTAGTGCAG | 9660 fluorescence intensity (a.u.)
CACTGCGGCTACCGGTCACCCTAAATATATATTCGTATGCCGGAGTCACCTAGTGCAG | 10700 fluorescence intensity (a.u.)
CGAAACCGACGGTCCAGATCTCGCCGCGCCAACCCCATCACGGAGTCACCTAGTGCAG | 8790 fluorescence intensity (a.u.)
CCAACACGTCCTCCTCAATATATTTTTTTCCGCCACGCGCCGGAGTCACCTAGTGCAG | 8180 fluorescence intensity (a.u.)
CTATATTTTATGTCGACGACAACATCTAGCTATTTCTTATCGGAGTCACCTAGTGCAG | 9980 fluorescence intensity (a.u.)
TGGTGGCGGCGGATCGCGTGTGGGACGGGAGGAGGAGGGTCGGAGTCACCTAGTGCAG | 8920 fluorescence intensity (a.u.)
GCAGCTGAGACTACACATCCCACCGTCCGTTGATCTGTTCCGGAGTCACCTAGTGCAG | 9250 fluorescence intensity (a.u.)
CTCGTTTCTCCTACCTTTGGCCTGCCCATTAATGGCCCCTCGGAGTCACCTAGTGCAG | 8300 fluorescence intensity (a.u.)
GTACGTCGCCGCGCTCTTGGAGCTTGGTCAACCCTCGGCACGGAGTCACCTAGTGCAG | 10600 fluorescence intensity (a.u.)
ACACGGCAGCAGCCCATCTCCCACCACACATATAACCCAGCGGAGTCACCTAGTGCAG | 8710 fluorescence intensity (a.u.)
CGCGTCTGCGAGCCCCACACCAAGTGCCTCCGCGTCGTCGCGGAGTCACCTAGTGCAG | 8060 fluorescence intensity (a.u.)
ACAAGTTGACATATTCTCTCTTTCCATCTCAAGCCGATTTCGGAGTCACCTAGTGCAG | 8670 fluorescence intensity (a.u.)
CAAATATGCCCGTTACCCTTTTGAACCGGTTTTTATTGCACGGAGTCACCTAGTGCAG | 9810 fluorescence intensity (a.u.)
GCCTCGCCGCCGCCGCCGCCGCCTCCGGCTCGCCGGCTCCCGGAGTCACCTAGTGCAG | 8750 fluorescence intensity (a.u.)
AACATACCGGTCACTCTTGCCATAACTGATCACTTTCCTGCGGAGTCACCTAGTGCAG | 10500 fluorescence intensity (a.u.)
TCCATCTCATAAAAACCATCATTTTGGGCCTATTCACTTTCGGAGTCACCTAGTGCAG | 8420 fluorescence intensity (a.u.)
GGGTTTTTTTTTTTTTTGCTGCTTTGCTTAGCACTTTTTTCGGAGTCACCTAGTGCAG | 8340 fluorescence intensity (a.u.)
GGAGTATAGTGTAGTGCTTCCTTTTTTTCTCATTTATTTTCGGAGTCACCTAGTGCAG | 11300 fluorescence intensity (a.u.)

Single values from the list:
binding signal with AATCTCGACCACTGTCTACGTATACCTGCTTCATCTGAACCGGAGTCACCTAGTGCAG reads 9740 fluorescence intensity (a.u.)
binding signal with ATCTTTTACCCTTTTTTTAACAAAGTTATTTTTTAGGAGCCGGAGTCACCTAGTGCAG reads 8520 fluorescence intensity (a.u.)
binding signal with GTACGTCGCCGCGCTCTTGGAGCTTGGTCAACCCTCGGCACGGAGTCACCTAGTGCAG reads 10600 fluorescence intensity (a.u.)
binding signal with AAAAAATGTGTGCGGTCAGAAGGTGGTTTGATTCTTATTTCGGAGTCACCTAGTGCAG reads 11000 fluorescence intensity (a.u.)
